Binding data for one substance are collected here from article PMC12386296.

Amino acid sequences for entries named in this document (tags omitted). A change or cut given only in a name is not applied to a line headed by its entry. Chains listed by the source or under a name are the forms on record and can include a tag or linker.
AT1R M3 mutant (S346A/S347A/S348A/T349A), treated with GRK3 (P30556, form named): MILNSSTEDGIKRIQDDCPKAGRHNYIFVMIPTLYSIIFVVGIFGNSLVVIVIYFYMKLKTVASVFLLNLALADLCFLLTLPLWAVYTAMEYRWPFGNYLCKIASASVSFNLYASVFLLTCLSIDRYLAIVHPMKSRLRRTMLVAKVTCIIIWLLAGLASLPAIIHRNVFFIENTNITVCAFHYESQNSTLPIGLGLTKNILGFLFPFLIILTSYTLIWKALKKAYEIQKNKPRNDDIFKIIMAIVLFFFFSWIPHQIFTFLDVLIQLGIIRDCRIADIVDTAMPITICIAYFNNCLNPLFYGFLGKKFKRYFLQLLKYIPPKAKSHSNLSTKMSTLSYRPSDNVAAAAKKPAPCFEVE
AT1R M1 mutant (S326A/S328A/S331A), treated with GRK3 (P30556, form named): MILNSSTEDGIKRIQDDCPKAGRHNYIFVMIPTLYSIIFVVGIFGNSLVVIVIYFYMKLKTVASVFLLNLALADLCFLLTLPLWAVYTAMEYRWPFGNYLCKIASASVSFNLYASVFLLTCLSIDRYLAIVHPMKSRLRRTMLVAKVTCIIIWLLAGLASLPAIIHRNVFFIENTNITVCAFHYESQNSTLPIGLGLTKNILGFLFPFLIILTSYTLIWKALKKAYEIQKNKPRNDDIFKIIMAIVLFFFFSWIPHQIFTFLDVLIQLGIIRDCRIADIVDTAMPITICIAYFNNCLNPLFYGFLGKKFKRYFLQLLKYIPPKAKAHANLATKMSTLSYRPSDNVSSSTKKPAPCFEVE
AT1R M2 mutant (T332A/S335A/T336A/S338A), treated with GRK3 (P30556, form named): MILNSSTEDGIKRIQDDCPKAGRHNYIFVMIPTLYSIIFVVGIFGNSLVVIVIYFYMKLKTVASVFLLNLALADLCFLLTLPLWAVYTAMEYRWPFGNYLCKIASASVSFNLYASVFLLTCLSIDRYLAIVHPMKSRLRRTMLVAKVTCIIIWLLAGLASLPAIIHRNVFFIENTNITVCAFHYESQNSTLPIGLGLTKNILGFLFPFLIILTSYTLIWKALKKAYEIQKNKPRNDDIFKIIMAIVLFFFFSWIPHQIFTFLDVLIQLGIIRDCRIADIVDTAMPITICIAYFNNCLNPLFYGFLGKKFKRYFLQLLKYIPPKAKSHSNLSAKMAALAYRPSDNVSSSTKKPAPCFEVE
β-arrestin1, engineered (I386A/V387A/F388A, 7C stabilizing mutations, truncated at residue 393) (P49407, form named): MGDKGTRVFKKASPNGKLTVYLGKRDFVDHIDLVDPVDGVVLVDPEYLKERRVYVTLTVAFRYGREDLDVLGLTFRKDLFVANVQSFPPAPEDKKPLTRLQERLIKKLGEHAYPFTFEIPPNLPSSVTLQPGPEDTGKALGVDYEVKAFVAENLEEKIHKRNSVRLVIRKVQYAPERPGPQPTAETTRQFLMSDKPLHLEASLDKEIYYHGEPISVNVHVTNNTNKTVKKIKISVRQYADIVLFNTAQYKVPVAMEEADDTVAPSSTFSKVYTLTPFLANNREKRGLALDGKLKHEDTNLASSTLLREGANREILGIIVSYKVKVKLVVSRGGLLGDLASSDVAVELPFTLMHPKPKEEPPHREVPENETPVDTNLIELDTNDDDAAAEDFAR

No constants are given. Whether binding was seen depends on the method and setting. Some binding calls cover weakened binding; strength is not graded here.

What all share (assay): pull-down; MBP pull-down on amylose resin; GRK-phosphorylated MBP-AT1R (AngII) incubated with β-arrestin at a 1.5-fold molar ratio at 25 °C for 30 min, then 3 h with resin; wash 20 mM HEPES, 100 mM NaCl, 0.002% LMNG, 2 mM MgCl2, 10 μM ligand; eluted with 2 mM maltose; analysed by SDS-PAGE; both purified
The target of assay [1] is AT1R wild type, phosphorylated in vitro by GRK6 (human) (UniProt P30556).
The target of assay [2] is AT1R wild type, phosphorylated in vitro by GRK5 (human) (UniProt P30556).
In assay [3] the target is AT1R M3 mutant (S346A/S347A/S348A/T349A), treated with GRK2 (human) (UniProt P30556).
Assay [4] addresses AT1R wild type, phosphorylated in vitro by GRK2 (human) (UniProt P30556).
In assay [5] the target is AT1R M1 mutant (S326A/S328A/S331A), treated with GRK2 (human) (UniProt P30556).
Assay [6] concerns the target AT1R M2 mutant (T332A/S335A/T336A/S338A), treated with GRK2 (human) (UniProt P30556).
Assay [7] deals with AT1R M1 mutant (S326A/S328A/S331A), treated with GRK3 (human) (UniProt P30556).
The target of assay [8] is AT1R wild type, phosphorylated in vitro by GRK3 (human) (UniProt P30556).
Assay [9] concerns the target AT1R M2 mutant (T332A/S335A/T336A/S338A), treated with GRK3 (human) (UniProt P30556).
Assay [10] addresses AT1R M3 mutant (S346A/S347A/S348A/T349A), treated with GRK3 (human) (UniProt P30556).

On to “β-arrestin1, engineered (I386A/V387A/F388A, 7C stabilizing mutations, truncated at residue 393) (from UniProt P49407 1-393)”, for which the binding result is “binds” in assay [1]; “binds” in assay [2]; “binds weakly” in assay [3]; “binds weakly” in assay [4]; “binds weakly” in assay [5]; “binds weakly” in assay [6]. Also, the binding result in assay [7], in assay [8], in assay [9] and in assay [10] was “binds weakly” throughout.
